Literature values in patent US11952334B2, “Cocrystals of ubiquinone and compositions comprising them” (CENTER FOR INTELLIGENT RESEARCH IN CRYSTAL ENGINEERING, S.L., priority 2018, dated 2024).

Settings: cited from earlier work

SMILES: COC1=C(OC)C(=O)C(C/C=C(\C)CC/C=C(\C)CC/C=C(\C)CC/C=C(\C)CC/C=C(\C)CC/C=C(\C)CC/C=C(\C)CC/C=C(\C)CC/C=C(\C)CCC=C(C)C)=C(C)C1=O [Compound P57, ubiquinone]
- Solubility in water (in words): very low solubility in water
